# Library screening results

Mtb growth Cornell: 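Whole-cell assay for inhibitors of Mycobacterium tuberculosis growth, labelled Cornell in the record; the read-out is not stated. The concentration is filed as 10 mM, unlikely as a test dose, so the dose is not known. Higher means stronger inhibition (inferred from two other growth screens of the library). Size under these conditions: about 53,000 compounds, about 900 of them at 50% or above in at least one test.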
Mtb heat-shock: 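Assay on Mycobacterium tuberculosis, filed only as a heat shock assay from Cornell; the read-out is not stated. The concentration is filed as 10 mM, unlikely as a test dose, so the dose is not known. Direction is inferred from retests: higher values go with stronger inhibition. Size under these conditions: about 69,000 compounds, about 930 of them at 50% or above in at least one test.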

Each number is a percent effect as filed. How 0% and 100% were set is not recorded. Most values in the screen are low, and negative values occur. Compounds were drawn at random from those tested, without regard to their results. A dash means the value is not listed here; it may have been measured.

| # | Compound | Mtb growth Cornell | Mtb heat-shock |
|---|---|---|---|
| 1 | `Nc1cc2c(nn1)CCN(C(=O)c1ccc(Oc3cccnc3)cc1)C2` | -14.34% | -5.899% |
| 2 | `c1csc(CNCC2COCc3c(-c4ccsc4)nnn3C2)n1` (centres undefined) | 11.5% | 2.574% |
| 3 | `OCCN1CCC(CNCc2ccc(N3CCCCC3)cc2)CC1` | 0.7667% | 2.962% |
| 4 | `CC(=O)N1CCCC1c1ccnc(Nc2cncnc2)n1` (centres undefined) | -12.16% | 2.671% |
| 5 | `O=C(O)C(F)(F)F.O=C(O)C(F)(F)F.[H][C@@]12COC[C@@H](C(=O)NCc3ccccn3)[C@]1([H])CN(C1CCC1)C2` | 9.943% | 3.202% |
| 6 | `Cc1nn(C)c(N2CCOCC2)c1CNC1CCc2ccccc2C1` (centres undefined) | 12.48% | -1.69% |
| 7 | `CCCOCCN1CCc2[nH]c(-c3ccccc3)nc2C1` | -3.982% | -9.448% |
| 8 | `Cc1ccc(CNCCN2CCOCC2)o1` | -25.3% | -29.09% |
| 9 | `CCOCC(=O)N1CCOCC2(CCN(c3ncccn3)C2)C1.O=C(O)C(F)(F)F` (centres undefined) | - | -26% |
| 10 | `CCn1cnnc1C1CCN(C(=O)COc2ccccc2)CC1` | - | -34.86% |
| 11 | `O=C(O)C(F)(F)F.c1cnc(N2CCCn3nnc(COCC4CC4)c3C2)nc1` | 13.84% | -6.212% |
| 12 | `CC1CN(CC(=O)Nc2ccncc2)CCN1c1nccs1` (centres undefined) | 30.96% | -8.615% |
| 13 | `O=C(O)C(F)(F)F.[H][C@@]12COC[C@@H](CC(=O)N3CCCC3)[C@]1([H])CN(C(=O)c1cccnc1)C2` | 17.45% | -6.162% |
| 14 | `O=C(NC1CC1)N1CC[C@@H](O)[C@@H]1Cc1ccccc1` | 15.89% | 5.803% |
| 15 | `Cc1ccncc1C(=O)N1CCCC(C(=O)CCc2ccccc2)C1` (centres undefined) | -11.39% | -18.21% |
| 16 | `CCN(C)C(=O)c1coc(COc2ccccc2)n1` | - | -13.36% |
| 17 | `CCNC(=O)COc1cc(CC)c2c(C)nn(-c3ccc(C)cc3)c2n1` | - | -10.09% |
| 18 | `CCCC1(CNCc2ncc[nH]2)CCC1` | - | 3.4% |
| 19 | `NC(=O)CSCCC(=O)NCC1CC1` | 3.221% | -0.6615% |
| 20 | `CCN(CCc1nc2cc(C)ccc2[nH]1)C(=O)[C@@H](N)Cc1c[nH]cn1` | -22.51% | 13.97% |
| 21 | `FC(F)(F)CCc1ccnc(N2CCN(Cc3ccncc3)CC2)n1` | 29.2% | -1.317% |
| 22 | `CCC(CN1CCCC1)NC(=O)C1(c2ccc(F)cc2)CC1` (centres undefined) | 38.36% | -10.24% |
| 23 | `Cc1cccc(CN(C)Cc2nc3c(cnn3C)c(=O)[nH]2)c1` | 19.05% | -9.764% |
| 24 | `CCC1CN(Cc2nnc(C(C)C)o2)CCC(=O)N1Cc1ccccc1` (centres undefined) | 7.932% | -22.3% |
| 25 | `Cl.NC(C(=O)N1CCSc2ccccc2C1)c1ccccc1` (centres undefined) | -20.62% | -2.673% |
| 26 | `Cc1ccc(OCC(=O)N2CCCC(n3nc(C)nc3C)C2)cc1` (centres undefined) | -7.997% | -13.19% |
| 27 | `CC(C)COC(=O)N1CCC2(CCNC2)C1.Cl` (centres undefined) | - | 2.947% |
| 28 | `Cc1ccc2c(c1)C(NC(=O)C1CCN(S(C)(=O)=O)CC1)CC(C)(C)O2` (centres undefined) | 29.88% | 18.02% |
| 29 | `O=C(O)C(F)(F)F.[H][C@@]12CN(CC3CCOCC3)C[C@]1([H])C(=O)N(c1ccsc1)C2` | 11.62% | -6.282% |
| 30 | `CC(C)(C)n1cc(C2=CCN(CCc3ccccc3)CC2)cn1` | 24.97% | 28.89% |
| 31 | `CC(=O)NCCC1CCCCN1S(=O)(=O)c1cccc(C#N)c1` (centres undefined) | 20.24% | -4.154% |
| 32 | `Cc1cccc(CN2CCC3(CCN(c4cccnc4)C3=O)C2)n1.O=C(O)C(F)(F)F.O=C(O)C(F)(F)F` (centres undefined) | 22.61% | 1.131% |
| 33 | `C1CCC(c2nc3c(c(N4CCN5CCCC5C4)n2)CCNCC3)C1` (centres undefined) | 15.67% | -7.217% |
| 34 | `Cc1nnc2n1CCN(Cc1csc(-c3cnn(C)c3)n1)C2` | -9.462% | -22% |
| 35 | `O=C(Cc1ccc(Cl)cc1)N[C@@H]1CCC[C@@H](O)[C@@H]1O` | 0.8208% | 3.6% |
| 36 | `Cc1cccc(CNCc2ccc(NC(=O)NC(C)C)cc2)c1` | - | 3.818% |
| 37 | `CCn1cnnc1C1CCN(C(=O)C(OC)c2ccccc2)CC1` (centres undefined) | - | -8.413% |
| 38 | `Cc1cc2nc(C(C)C)cc(NCC(c3ccccn3)N(C)C)n2n1` (centres undefined) | 43.46% | 107.7% |
| 39 | `Cc1ccsc1-c1cccc(-c2ccn(CC3CCNC3)n2)c1` (centres undefined) | -21.91% | 84.67% |
| 40 | `O=C(O)c1ccnc(-c2ccnc(NCCc3ccc(F)cc3)n2)c1` | - | 6.397% |
| 41 | `CCc1nnc(NCc2cccc(OC)c2OC)o1` | -23.6% | -31.39% |
| 42 | `CCOc1ccc(CN2CCN(C(=O)c3ccc(C)n3C)CC2)cc1` | - | -6.777% |
| 43 | `CNC(=O)c1ccc(C(=O)N2CCCC(n3cc(C)cn3)C2)cn1` (centres undefined) | -9.307% | -16.9% |
| 44 | `CC(O)CN1CCN(C(=O)c2cn(-c3ccccc3Cl)nn2)CC1` (centres undefined) | 13.48% | -3.259% |
| 45 | `CC(C)n1cnnc1CN(C)C(=O)c1cccnc1O` | - | -27.48% |

The last 5 entries again:

{"compound": "CCc1nnc(NCc2cccc(OC)c2OC)o1", "Mtb growth Cornell": -23.6, "Mtb heat-shock": -31.39}
{"compound": "CCOc1ccc(CN2CCN(C(=O)c3ccc(C)n3C)CC2)cc1", "Mtb heat-shock": -6.777}
{"compound": "CNC(=O)c1ccc(C(=O)N2CCCC(n3cc(C)cn3)C2)cn1", "stereo": "centres undefined", "Mtb growth Cornell": -9.307, "Mtb heat-shock": -16.9}
{"compound": "CC(O)CN1CCN(C(=O)c2cn(-c3ccccc3Cl)nn2)CC1", "stereo": "centres undefined", "Mtb growth Cornell": 13.48, "Mtb heat-shock": -3.259}
{"compound": "CC(C)n1cnnc1CN(C)C(=O)c1cccnc1O", "Mtb heat-shock": -27.48}

The values are deposited in ChEMBL (CHEMBL3988442, “University of Dundee, Small-Polar-MMV Screening Library” (2021)).